From the supplement of paper PMC10849652
The list shows a part of the results.

Amino acid sequences for entries named in this document (tags omitted). A change or cut given only in a name is not applied to a line headed by its entry.
UniProt Q9Y573: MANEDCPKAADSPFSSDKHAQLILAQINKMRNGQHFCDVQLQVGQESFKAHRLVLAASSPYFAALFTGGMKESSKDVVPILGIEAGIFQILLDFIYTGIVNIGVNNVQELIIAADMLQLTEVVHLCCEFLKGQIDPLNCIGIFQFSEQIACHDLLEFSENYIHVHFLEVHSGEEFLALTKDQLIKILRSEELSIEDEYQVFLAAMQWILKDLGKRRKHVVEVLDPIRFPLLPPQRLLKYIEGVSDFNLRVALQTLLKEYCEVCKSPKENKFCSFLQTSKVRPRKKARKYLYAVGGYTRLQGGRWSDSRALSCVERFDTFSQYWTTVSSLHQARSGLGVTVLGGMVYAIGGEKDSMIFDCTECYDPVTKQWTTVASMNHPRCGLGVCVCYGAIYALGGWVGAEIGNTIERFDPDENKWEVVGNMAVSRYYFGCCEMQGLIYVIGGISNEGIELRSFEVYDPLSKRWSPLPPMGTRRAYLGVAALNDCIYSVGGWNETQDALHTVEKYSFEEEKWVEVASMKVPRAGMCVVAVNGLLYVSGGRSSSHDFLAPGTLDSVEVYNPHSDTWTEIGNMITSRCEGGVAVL
UniProt Q13303: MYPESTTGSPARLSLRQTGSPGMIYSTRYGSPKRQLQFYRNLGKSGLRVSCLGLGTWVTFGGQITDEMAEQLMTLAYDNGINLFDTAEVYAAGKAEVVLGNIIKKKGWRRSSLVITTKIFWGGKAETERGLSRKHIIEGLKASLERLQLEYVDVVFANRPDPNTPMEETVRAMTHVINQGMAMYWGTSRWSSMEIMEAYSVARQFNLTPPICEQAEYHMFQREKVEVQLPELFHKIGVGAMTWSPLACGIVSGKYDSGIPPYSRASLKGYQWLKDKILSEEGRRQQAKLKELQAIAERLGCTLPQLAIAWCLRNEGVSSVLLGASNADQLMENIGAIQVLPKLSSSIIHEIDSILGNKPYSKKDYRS
UniProt Q9Y287, whole entry, looked up: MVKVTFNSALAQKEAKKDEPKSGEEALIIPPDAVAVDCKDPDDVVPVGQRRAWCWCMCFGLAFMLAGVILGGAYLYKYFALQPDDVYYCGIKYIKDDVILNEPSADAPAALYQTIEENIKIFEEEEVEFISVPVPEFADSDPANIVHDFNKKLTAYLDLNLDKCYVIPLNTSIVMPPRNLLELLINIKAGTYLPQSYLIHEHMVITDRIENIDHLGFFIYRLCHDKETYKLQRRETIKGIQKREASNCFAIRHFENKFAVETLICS
UniProt Q13572: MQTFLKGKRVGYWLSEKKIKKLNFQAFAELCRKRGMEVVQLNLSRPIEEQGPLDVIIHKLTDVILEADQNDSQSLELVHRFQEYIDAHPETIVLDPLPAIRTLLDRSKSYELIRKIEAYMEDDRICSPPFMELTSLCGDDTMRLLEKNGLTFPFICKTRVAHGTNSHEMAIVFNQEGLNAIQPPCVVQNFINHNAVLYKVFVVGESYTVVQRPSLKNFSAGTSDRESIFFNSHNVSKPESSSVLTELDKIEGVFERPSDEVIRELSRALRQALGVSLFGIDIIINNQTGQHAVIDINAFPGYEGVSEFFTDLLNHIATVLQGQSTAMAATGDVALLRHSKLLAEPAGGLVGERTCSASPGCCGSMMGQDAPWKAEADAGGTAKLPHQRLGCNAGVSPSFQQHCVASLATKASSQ
UniProt O60674: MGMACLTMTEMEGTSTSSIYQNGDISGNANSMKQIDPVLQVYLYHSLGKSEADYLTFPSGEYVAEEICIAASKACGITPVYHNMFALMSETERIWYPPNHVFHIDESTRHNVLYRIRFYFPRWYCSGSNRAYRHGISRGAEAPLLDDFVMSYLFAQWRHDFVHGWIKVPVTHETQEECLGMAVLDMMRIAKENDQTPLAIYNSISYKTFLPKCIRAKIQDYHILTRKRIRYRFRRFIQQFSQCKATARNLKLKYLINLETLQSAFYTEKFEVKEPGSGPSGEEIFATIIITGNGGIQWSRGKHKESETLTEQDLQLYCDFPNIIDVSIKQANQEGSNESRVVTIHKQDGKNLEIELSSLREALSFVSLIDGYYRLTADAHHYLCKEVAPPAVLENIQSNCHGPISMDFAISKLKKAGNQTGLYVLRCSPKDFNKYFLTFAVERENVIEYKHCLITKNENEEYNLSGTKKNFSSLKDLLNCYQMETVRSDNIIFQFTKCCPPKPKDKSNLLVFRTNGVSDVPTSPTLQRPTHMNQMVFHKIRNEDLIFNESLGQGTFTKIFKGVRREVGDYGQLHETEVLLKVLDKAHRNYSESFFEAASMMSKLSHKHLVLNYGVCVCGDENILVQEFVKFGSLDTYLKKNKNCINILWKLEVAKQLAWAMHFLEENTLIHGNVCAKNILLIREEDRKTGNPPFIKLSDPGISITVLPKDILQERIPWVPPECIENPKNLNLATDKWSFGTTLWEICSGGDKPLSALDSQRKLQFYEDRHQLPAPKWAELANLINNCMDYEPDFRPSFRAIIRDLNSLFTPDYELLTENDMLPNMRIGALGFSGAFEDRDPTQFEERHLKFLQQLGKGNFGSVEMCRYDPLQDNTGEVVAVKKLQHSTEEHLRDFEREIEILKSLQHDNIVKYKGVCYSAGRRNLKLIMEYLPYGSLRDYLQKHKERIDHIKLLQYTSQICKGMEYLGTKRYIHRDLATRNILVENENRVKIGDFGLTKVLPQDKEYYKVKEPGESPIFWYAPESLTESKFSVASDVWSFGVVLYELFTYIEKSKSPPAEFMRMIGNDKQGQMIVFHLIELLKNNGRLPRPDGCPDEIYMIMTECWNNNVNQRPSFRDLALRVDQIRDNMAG
UniProt Q92993, whole entry, looked up: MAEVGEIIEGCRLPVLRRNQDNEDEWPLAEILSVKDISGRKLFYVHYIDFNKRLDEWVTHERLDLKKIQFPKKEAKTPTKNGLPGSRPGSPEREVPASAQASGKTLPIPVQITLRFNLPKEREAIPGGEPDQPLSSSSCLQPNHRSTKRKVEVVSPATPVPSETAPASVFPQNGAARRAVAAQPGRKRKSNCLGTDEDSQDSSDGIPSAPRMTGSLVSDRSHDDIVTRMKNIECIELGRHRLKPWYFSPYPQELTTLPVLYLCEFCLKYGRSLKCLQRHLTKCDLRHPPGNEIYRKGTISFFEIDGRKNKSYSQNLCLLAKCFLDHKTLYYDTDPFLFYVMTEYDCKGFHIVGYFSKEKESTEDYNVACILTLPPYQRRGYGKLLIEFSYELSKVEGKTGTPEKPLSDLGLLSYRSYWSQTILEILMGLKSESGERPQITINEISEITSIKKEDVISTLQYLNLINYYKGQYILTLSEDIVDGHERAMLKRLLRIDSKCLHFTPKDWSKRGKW
UniProt P18084: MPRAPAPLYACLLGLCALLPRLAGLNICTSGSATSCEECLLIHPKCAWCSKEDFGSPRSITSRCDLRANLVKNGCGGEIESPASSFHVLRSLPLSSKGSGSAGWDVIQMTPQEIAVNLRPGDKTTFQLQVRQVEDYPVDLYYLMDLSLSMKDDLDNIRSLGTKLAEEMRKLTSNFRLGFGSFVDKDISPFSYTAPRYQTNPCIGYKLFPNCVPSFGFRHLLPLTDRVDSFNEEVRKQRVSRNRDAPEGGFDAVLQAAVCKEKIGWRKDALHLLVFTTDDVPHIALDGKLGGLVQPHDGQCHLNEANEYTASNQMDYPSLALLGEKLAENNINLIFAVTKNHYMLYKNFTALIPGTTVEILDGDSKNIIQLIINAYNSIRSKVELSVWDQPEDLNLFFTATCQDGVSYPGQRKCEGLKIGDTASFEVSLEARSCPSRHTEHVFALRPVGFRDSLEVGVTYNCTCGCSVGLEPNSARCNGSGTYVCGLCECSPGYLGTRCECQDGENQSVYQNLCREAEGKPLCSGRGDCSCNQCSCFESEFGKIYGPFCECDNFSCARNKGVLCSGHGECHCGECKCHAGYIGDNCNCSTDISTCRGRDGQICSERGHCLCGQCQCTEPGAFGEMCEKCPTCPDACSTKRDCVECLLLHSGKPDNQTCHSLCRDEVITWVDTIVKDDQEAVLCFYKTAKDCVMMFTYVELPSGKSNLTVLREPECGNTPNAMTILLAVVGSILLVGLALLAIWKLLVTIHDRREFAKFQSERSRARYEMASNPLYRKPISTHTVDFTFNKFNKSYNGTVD
UniProt P48200: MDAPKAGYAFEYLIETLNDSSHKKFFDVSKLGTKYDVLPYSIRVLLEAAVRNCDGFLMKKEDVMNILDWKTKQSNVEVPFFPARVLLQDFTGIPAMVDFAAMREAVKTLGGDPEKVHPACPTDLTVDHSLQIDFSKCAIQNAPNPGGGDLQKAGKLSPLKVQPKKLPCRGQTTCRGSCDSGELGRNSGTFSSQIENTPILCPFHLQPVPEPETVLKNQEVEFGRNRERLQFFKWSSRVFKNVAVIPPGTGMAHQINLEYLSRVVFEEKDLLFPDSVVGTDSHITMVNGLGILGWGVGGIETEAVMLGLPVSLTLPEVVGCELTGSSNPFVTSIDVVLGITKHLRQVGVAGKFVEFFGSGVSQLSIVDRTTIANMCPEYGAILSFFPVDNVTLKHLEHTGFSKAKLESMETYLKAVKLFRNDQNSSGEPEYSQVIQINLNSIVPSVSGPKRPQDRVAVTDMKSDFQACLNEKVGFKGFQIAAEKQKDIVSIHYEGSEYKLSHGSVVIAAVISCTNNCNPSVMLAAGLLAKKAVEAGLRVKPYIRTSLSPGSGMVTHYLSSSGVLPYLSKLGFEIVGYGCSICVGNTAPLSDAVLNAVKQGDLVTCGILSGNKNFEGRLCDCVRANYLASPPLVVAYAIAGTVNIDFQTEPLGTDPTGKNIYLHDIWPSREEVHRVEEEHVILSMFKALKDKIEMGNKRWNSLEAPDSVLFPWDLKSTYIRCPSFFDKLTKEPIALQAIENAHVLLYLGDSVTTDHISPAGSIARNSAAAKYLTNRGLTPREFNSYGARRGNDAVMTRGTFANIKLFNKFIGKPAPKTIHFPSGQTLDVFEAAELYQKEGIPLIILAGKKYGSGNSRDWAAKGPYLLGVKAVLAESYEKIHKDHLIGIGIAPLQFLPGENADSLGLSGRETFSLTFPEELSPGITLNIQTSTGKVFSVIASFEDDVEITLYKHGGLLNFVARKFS
UniProt Q8IU81: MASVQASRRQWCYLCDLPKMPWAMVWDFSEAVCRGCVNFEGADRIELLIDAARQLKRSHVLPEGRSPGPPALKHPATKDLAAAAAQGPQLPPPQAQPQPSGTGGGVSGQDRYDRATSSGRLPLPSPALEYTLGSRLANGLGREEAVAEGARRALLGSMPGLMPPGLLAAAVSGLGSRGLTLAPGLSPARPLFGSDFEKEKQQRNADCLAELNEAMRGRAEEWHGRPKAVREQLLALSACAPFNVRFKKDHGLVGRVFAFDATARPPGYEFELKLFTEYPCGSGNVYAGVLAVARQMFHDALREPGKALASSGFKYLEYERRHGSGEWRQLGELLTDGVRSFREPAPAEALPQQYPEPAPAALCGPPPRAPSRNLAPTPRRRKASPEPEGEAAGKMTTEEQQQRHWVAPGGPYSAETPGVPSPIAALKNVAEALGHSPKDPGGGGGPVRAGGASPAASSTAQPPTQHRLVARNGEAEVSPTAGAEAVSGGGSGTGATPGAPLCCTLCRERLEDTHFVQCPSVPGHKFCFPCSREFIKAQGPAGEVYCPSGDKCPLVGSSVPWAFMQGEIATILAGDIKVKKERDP
UniProt Q92830, whole entry, looked up: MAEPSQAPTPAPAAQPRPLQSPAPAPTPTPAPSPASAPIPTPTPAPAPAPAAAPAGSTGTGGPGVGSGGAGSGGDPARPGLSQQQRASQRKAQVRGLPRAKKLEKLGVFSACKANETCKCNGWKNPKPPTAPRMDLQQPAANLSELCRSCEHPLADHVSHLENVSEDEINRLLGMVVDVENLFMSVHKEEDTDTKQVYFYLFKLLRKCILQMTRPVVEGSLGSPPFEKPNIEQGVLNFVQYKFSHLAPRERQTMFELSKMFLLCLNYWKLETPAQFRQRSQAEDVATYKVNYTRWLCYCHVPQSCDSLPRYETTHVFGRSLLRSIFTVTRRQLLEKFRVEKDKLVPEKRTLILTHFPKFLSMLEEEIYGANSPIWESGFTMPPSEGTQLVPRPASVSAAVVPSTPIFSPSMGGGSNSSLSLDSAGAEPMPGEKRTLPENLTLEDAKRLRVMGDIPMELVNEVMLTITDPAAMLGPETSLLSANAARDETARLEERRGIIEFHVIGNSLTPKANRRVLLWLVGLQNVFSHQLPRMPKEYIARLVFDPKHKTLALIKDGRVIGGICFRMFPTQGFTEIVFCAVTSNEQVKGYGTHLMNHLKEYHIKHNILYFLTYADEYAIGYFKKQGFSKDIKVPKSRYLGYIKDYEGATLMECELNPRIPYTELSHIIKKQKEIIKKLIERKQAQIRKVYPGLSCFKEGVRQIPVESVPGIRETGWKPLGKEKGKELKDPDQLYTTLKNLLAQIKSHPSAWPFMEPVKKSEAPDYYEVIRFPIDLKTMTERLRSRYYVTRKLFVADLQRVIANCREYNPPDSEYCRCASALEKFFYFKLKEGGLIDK

Compound: CNC(=O)C1=CC=CC=C1NC2=NC(=NC=C2Cl)NC3=C(C=C(C=C3)N4CCOCC4)OC
Test: log2 fold change, soluble protein after heating vs DMSO (PISA); higher = thermal stabilisation; K562 lysate, 10 uM; active = over 0.2 and 3.5 SD of the protein, either way, in both replicates (recomputed)
Method in brief: (§1)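 Dounce homogenisation of K562 pellets in PBS pH 7.4 with 1 mM MgCl2 produced a crude extract, used at 1 mg/mL protein. Exposure to 10 μM compound lasted 30 min, and aliquots were then heated for 3 min across 48°C-58°C, pooled and brought to 0.5% NP-40 at 4°C. The supernatant after 21,000xg for 90 min was quantified by TMTpro 16plex LC-MS/MS with channel sums equalised. Duplicate values are given as log-two fold change in thermal stability relative to solvent controls.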

| Target | log2 fold change |
| --- | --- |
| IPP (UniProt Q9Y573) | inactive: -0.07 |
| KCNAB2 (UniProt Q13303) | inactive: -0.021 |
| IRS2 (UniProt Q9Y4H2) | inactive: -0.02 |
| ITM2B (UniProt Q9Y287) | inactive: 0.037 |
| JMJD7 (UniProt P0C870) | inactive: 0.125 |
| ITPK1 (UniProt Q13572) | inactive: -0.039 |
| ISL2 (UniProt Q96A47) | inactive: -0.042 |
| JAG2 (UniProt Q9Y219) | inactive: 0.093 |
| JAK2 (UniProt O60674) | inactive: 0.036 |
| KAT5 isoform 3 (UniProt Q92993) | inactive: 0.116 |
| ITGB5 (UniProt P18084) | inactive: -0.002 |

Compound: CNC(=O)c1ccc(Nc2ncc(C(F)(F)F)c(NCc3nccnc3N(C)S(C)(=O)=O)n2)cc1 [defactinib]
Test: as above
Method in brief: as §1

| Target | log2 fold change |
| --- | --- |
| KDELR1 (UniProt P24390) | inactive: 0.061 |
| IREB2 (UniProt P48200) | inactive: -0.034 |
| ITGA5 (UniProt P08648) | inactive: -0.013 |
| JMJD1C (UniProt Q15652) | inactive: 0.037 |
| ITPR1 (UniProt Q14643) | inactive: -0.116 |
| IRAK4 (UniProt Q9NWZ3) | inactive: 0.145 |
| KDM3A (UniProt Q9Y4C1) | inactive: -0.04 |
| IQSEC2 (UniProt Q5JU85) | inactive: -0.028 |
| KAT6B (UniProt Q8WYB5) | inactive: 0.014 |
| KDM2A (UniProt Q9Y2K7) | inactive: 0.046 |
| ISOC2 (UniProt Q96AB3) | inactive: 0.121 |
| ITGAE (UniProt P38570) | inactive: -0.165 |
| INTS7 (UniProt Q9NVH2) | inactive: -0.125 |
| INTS6 (UniProt Q9UL03) | inactive: 0.058 |
| ITGA2B (UniProt P08514) | inactive: -0.2 |
| KARS1 (UniProt Q15046) | inactive: 0 |
| IQGAP3 (UniProt Q86VI3) | inactive: -0.196 |
| IRF2BP1 (UniProt Q8IU81) | inactive: 0.045 |
| ITIH2 (UniProt P19823) | inactive: -0.028 |
| INTS5 (UniProt Q6P9B9) | inactive: 0.017 |
| ITPKC (UniProt Q96DU7) | inactive: 0.098 |
| IPP (UniProt Q9Y573) | inactive: 0.016 |
| KCNAB2 (UniProt Q13303) | inactive: -0.038 |
| ITM2B (UniProt Q9Y287) | inactive: 0.16 |
| KANK2 isoform 2 (UniProt Q63ZY3) | inactive: 0.022 |
| ITPK1 (UniProt Q13572) | inactive: -0.036 |
| JAK2 (UniProt O60674) | inactive: -0.001 |
| KAT5 isoform 3 (UniProt Q92993) | inactive: -0.065 |
| ITGB5 (UniProt P18084) | inactive: -0.011 |

Compound: CNc1nc(-c2ccc3c(N)n[nH]c3c2)cc(N2C[C@@H](C(=O)NC3CCCCC3)CC[C@H]2C)n1
Test: as above
Method in brief: as §1

| Target | log2 fold change |
| --- | --- |
| KDELR1 (UniProt P24390) | inactive: 0.082 |
| IREB2 (UniProt P48200) | inactive: -0.029 |
| ITGA5 (UniProt P08648) | inactive: 0.004 |
| JMJD1C (UniProt Q15652) | inactive: 0.064 |
| KAT2A (UniProt Q92830) | inactive: -0.104 |
| KANSL1 (UniProt Q7Z3B3) | inactive: -0.043 |
| IRAK4 (UniProt Q9NWZ3) | inactive: -0.018 |
| KDM3A (UniProt Q9Y4C1) | inactive: 0.078 |
| IQSEC2 (UniProt Q5JU85) | inactive: -0.091 |
| KAT6B (UniProt Q8WYB5) | inactive: -0.027 |
| KDM2A (UniProt Q9Y2K7) | inactive: 0.041 |
| JMY (UniProt Q8N9B5) | inactive: 0.087 |
| ISOC2 (UniProt Q96AB3) | inactive: -0.024 |
| INTS6L (UniProt Q5JSJ4) | inactive: -0.038 |
| INTS7 (UniProt Q9NVH2) | inactive: -0.017 |
| INTS6 (UniProt Q9UL03) | inactive: -0.064 |
| KARS1 (UniProt Q15046) | inactive: -0.035 |

| Target | log2 fold change |
| --- | --- |
| IQGAP3 (UniProt Q86VI3) | inactive: -0.036 |
| IRF2BP1 (UniProt Q8IU81) | inactive: 0.091 |
| INTS5 (UniProt Q6P9B9) | inactive: -0.047 |
| ITPKC (UniProt Q96DU7) | inactive: -0.103 |
| IPP (UniProt Q9Y573) | inactive: 0.029 |
| KCNAB2 (UniProt Q13303) | inactive: 0.023 |
| IRS2 (UniProt Q9Y4H2) | inactive: 0.275 |
| ITM2B (UniProt Q9Y287) | inactive: 0.074 |
| KANK2 isoform 2 (UniProt Q63ZY3) | inactive: 0.307 |
| JMJD7 (UniProt P0C870) | inactive: -0.095 |
| ITPK1 (UniProt Q13572) | inactive: 0.034 |
| ISL2 (UniProt Q96A47) | inactive: 0.025 |
| JAG2 (UniProt Q9Y219) | inactive: -0.058 |
| JAK2 (UniProt O60674) | inactive: 0.015 |
| KAT5 isoform 3 (UniProt Q92993) | inactive: -0.231 |
| ITGB5 (UniProt P18084) | inactive: 0.018 |
